Laboratory results from publication PMC8774046.
No constants are given. Whether binding was seen depends on the method and setting. A result given as binding can be weak or reduced; the word gives no strength. For some assays here: Tags and fused reporters may be left off the sequences shown. For some assays here: In cells and extracts the contact can be indirect.

Protein sequences, listed by entry. Tags and fused reporters are not part of them. Lines headed by an entry give the natural chain unless they say otherwise; changes in a name come on top.
UniProt Q9FMI8: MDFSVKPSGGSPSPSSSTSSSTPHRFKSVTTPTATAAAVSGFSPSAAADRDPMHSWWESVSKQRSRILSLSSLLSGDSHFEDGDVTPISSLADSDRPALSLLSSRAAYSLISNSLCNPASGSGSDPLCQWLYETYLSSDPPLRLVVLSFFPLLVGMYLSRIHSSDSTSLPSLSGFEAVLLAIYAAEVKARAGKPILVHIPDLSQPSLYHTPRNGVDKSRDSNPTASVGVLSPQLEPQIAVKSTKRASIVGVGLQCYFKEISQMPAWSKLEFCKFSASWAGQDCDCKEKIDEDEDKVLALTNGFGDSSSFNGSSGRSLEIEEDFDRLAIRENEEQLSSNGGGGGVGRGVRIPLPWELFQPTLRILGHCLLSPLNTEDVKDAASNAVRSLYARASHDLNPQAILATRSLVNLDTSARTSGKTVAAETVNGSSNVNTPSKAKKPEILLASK

Assays:
[1] = molecular target: T1, NPG1 (pairwise yeast two-hybrid fusion) (Arabidopsis thaliana) (UniProt Q8GZN1); experiment: two-hybrid; pairwise; AD vectors (prey) in Y8800 and DB vectors (bait) in Y8930, mated; growth on SD-LTH, with 1 mM 3AT for strong interactions; CHX control for auto-activation
T1 sequence: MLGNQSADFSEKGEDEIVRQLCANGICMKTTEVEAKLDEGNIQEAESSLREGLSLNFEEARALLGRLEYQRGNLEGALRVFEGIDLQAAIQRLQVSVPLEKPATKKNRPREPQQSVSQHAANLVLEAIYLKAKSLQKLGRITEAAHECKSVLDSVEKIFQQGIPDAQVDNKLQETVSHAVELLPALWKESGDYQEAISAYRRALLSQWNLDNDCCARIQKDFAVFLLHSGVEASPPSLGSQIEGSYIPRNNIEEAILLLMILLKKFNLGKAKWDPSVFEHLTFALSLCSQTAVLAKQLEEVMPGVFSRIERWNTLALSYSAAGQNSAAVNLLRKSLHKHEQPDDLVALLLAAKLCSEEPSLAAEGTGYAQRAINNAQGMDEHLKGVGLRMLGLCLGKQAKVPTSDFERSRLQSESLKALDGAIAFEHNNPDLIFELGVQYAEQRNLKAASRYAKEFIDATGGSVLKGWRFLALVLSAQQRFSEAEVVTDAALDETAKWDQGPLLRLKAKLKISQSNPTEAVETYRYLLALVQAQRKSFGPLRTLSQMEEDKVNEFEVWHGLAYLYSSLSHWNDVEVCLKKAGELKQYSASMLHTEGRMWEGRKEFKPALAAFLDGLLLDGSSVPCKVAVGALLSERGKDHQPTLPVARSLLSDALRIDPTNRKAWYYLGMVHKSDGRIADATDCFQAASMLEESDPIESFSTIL

[2] = molecular target: T2, NPGR2 (pairwise yeast two-hybrid fusion) (Arabidopsis thaliana) (UniProt Q66GN3); experiment: as above
T2 sequence: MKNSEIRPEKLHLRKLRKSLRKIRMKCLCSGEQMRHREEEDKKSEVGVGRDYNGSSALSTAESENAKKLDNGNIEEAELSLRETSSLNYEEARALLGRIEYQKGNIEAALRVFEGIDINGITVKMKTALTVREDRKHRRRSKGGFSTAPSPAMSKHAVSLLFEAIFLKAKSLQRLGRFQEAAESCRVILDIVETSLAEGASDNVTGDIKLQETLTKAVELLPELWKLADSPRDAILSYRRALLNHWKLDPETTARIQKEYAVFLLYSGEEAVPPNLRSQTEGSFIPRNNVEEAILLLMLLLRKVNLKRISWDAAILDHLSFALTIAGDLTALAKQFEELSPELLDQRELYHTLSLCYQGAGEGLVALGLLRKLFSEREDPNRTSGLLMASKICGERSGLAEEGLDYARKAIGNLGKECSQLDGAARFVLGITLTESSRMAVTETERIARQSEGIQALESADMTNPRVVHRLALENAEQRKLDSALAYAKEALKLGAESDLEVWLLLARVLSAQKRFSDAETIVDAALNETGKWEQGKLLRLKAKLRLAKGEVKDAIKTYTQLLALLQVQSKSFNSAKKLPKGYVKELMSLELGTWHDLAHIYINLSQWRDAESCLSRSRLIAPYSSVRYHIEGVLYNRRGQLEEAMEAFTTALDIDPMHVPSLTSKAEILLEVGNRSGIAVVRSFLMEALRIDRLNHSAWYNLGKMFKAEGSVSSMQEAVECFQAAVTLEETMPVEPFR

[3] = molecular target: T3, NPGR1 (pairwise yeast two-hybrid fusion) (Arabidopsis thaliana) (UniProt Q9CB03); experiment: as above
T3 sequence: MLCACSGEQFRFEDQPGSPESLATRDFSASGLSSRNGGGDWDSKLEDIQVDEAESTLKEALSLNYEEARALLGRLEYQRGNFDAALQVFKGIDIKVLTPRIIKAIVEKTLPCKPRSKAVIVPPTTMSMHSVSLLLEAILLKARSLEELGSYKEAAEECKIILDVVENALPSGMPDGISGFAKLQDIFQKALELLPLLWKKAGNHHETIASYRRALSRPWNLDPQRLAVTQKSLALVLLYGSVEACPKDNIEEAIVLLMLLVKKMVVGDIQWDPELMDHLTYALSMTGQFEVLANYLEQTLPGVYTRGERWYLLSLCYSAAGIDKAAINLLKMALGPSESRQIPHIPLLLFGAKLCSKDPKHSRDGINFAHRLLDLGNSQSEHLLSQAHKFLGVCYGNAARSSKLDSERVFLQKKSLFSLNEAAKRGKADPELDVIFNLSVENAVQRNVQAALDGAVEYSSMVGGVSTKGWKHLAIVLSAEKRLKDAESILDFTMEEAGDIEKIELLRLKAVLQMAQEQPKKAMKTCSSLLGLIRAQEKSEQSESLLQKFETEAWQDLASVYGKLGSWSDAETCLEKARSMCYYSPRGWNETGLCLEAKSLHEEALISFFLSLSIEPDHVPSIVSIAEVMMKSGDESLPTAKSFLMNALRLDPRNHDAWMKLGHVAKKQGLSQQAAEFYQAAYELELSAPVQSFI

[4] = molecular target: HYC2–mCITRINE (Arabidopsis thaliana); experiment: co-IP; leaf tissue of Arabidopsis transgenic lines; proteins fused to mCITRINE immunoprecipitated with Miltenyi µMacs anti-GFP; immunoblot with anti-PI4Kα1, anti-NPGR2 and anti-GFP

Row | Molecule | binding [1] | binding [2] | binding [3] | binding [4]
1 | HYC1 (pairwise yeast two-hybrid fusion) (from UniProt Q3E983) | binds | – | – | –
2 | HYC2 (pairwise yeast two-hybrid fusion) (from UniProt Q9FMI8) | binds | binds | binds | –
3 | NPGR2 (endogenous) (protein, UniProt Q66GN3 1-739) MKNSEIRPEKLHLRKLRKSLRKIRMKCLCSGEQMRHREEEDKKSEVGVGRDYNGSSALSTAESENAKKLDNGNIEEAELSLRETSSLNYEEARALLGRIEYQKGNIEAALRVFEGIDINGITVKMKTALTVREDRKHRRRSKGGFSTAPSPAMSKHAVSLLFEAIFLKAKSLQRLGRFQEAAESCRVILDIVETSLAEGASDNVTGDIKLQETLTKAVELLPELWKLADSPRDAILSYRRALLNHWKLDPETTARIQKEYAVFLLYSGEEAVPPNLRSQTEGSFIPRNNVEEAILLLMLLLRKVNLKRISWDAAILDHLSFALTIAGDLTALAKQFEELSPELLDQRELYHTLSLCYQGAGEGLVALGLLRKLFSEREDPNRTSGLLMASKICGERSGLAEEGLDYARKAIGNLGKECSQLDGAARFVLGITLTESSRMAVTETERIARQSEGIQALESADMTNPRVVHRLALENAEQRKLDSALAYAKEALKLGAESDLEVWLLLARVLSAQKRFSDAETIVDAALNETGKWEQGKLLRLKAKLRLAKGEVKDAIKTYTQLLALLQVQSKSFNSAKKLPKGYVKELMSLELGTWHDLAHIYINLSQWRDAESCLSRSRLIAPYSSVRYHIEGVLYNRRGQLEEAMEAFTTALDIDPMHVPSLTSKAEILLEVGNRSGIAVVRSFLMEALRIDRLNHSAWYNLGKMFKAEGSVSSMQEAVECFQAAVTLEETMPVEPFR | – | – | – | binds
